From doi:10.1101/2021.04.08.438944
These are yes or no findings as the source states them, for the method shown. Binding seen in cells or lysates may run through a third protein. Some binding calls cover weakened binding; strength is not graded here. Where a sequence is shown, tags or fusion partners need not be part of it.

Experiments:
[1] = target: T1, DNAJB14-FL tagged with FLAG (human) (UniProt Q8TBM8); experiment: co-IP
T1 sequence: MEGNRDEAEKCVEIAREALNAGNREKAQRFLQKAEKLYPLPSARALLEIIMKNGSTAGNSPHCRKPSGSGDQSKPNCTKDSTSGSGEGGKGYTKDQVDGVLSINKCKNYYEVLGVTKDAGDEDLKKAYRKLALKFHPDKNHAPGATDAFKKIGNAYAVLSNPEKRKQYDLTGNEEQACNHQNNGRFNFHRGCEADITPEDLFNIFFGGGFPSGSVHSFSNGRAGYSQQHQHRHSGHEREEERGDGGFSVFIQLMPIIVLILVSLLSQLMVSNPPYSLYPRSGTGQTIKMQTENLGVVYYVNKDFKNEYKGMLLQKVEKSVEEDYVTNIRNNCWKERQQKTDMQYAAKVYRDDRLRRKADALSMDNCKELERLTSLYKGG

[2] = target: T2, DNAJB14-HPDmut1 tagged with FLAG (human) (UniProt Q8TBM8); experiment: co-IP
T2 sequence: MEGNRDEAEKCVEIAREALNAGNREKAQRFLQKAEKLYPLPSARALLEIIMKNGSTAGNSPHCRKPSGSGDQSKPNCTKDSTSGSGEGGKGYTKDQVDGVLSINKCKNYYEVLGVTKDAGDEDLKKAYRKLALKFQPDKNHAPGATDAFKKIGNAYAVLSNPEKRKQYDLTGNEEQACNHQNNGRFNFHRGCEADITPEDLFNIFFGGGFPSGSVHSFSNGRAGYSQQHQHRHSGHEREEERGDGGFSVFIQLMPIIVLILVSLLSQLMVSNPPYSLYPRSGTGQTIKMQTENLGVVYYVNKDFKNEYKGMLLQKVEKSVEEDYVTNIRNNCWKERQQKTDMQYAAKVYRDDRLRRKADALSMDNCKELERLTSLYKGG

B1: DNAJB12-FL tagged with mOrange (protein, UniProt Q9NXW2-1 1-375)
chain: MESNKDEAERCISIALKAIQSNQPDRALRFLEKAQRLYPTPRVRALIESLNQKPQTAGDQPPPTDTTHATHRKAGGTDAPSANGEAGGESTKGYTAEQVAAVKRVKQCKDYYEILGVSRGASDEDLKKAYRRLALKFHPDKNHAPGATEAFKAIGTAYAVLSNPEKRKQYDQFGDDKSQAARHGHGHGDFHRGFEADISPEDLFNMFFGGGFPSSNVHVYSNGRMRYTYQQRQDRRDNQGDGGLGVFVQLMPILILILVSALSQLMVSSPPYSLSPRPSVGHIHRRVTDHLGVVYYVGDTFSEEYTGSSLKTVERNVEDDYIANLRNNCWKEKQQKEGLLYRARYFGDTDMYHRAQKMGTPSCSRLSEVQASLHG
For B1, the binding [1] was “binds” and the binding [2] was “binds”.
